Experimental data from the supplement of paper PMC5949888.
Most values lie at the floor of the assay. Slopes are relative: functional sequences can read slightly below zero.

The substances below were run on Saccharomyces cerevisiae PS128 hsf1 delta, HSF1(1-493) fusion (assay: growth estimate (transactivation domain function in HSF1 fusion, heat-shock survival) (a.u. (slope of normalised read count over time)); higher = stronger growth at 37°C, i.e. more transactivation activity). Details: library: random library.

| Substance | growth estimate |
| --- | --- |
| NTVRGGRGLVPGWSNVGLEM | < -0.25 |
| CRGGCWDNLSTRPEID | < -0.25 |
| RCSDQRPFMSP | < -0.25 |
| FCHSRIDFRCSVKL | < -0.25 |
| APGPWRSMKSSGIRAMRLFI | < -0.25 |
| WRKGQTPLVHQWTTKCMPLA | < -0.25 |
| PAGE | < -0.25 |
| WPHATRTR | < -0.25 |
| LLLNRR | < -0.25 |
| AVLPEGHV | < -0.25 |
| CQTSAVRLPSPNHCRLMHVV | < -0.25 |
| DGRALSTVFRYDVYVSIRRR | < -0.25 |
| YVQSVSPCDASTVGHLGDPG | < -0.25 |
| WIRSLGQ | < -0.25 |
| NPPIQRLQPTSTIPGLTSDL | < -0.25 |
| FSWNTGWR | < -0.25 |
| WHAFRWSGGNG | -0.208 |
| FFTSPDLICPQFAGCPYVPN | -0.245 |
| HPV | < -0.25 |
| VFGCHTIGGTSG | < -0.25 |
| TLIVVRKLS | < -0.25 |
| GQTVVN | < -0.25 |
| LNSIVVGEQETIRTRA | < -0.25 |

| Substance | growth estimate |
| --- | --- |
| NYCSWSLERLS | < -0.25 |
| VCIRYITIAAHKRE | < -0.25 |
| DQEGQVGSKV | < -0.25 |
| TLSRRGRLSLAHC | < -0.25 |
| GVLGYVTSKST | < -0.25 |
| TPTLRVQEALSFPLTPVIIA | < -0.25 |
| QEGPGFLSEGRYS | < -0.25 |
| LDIFISGDDSLLVCN | < -0.25 |
| YLDWAGRIIGRLPVAIRWFP | < -0.25 |
| GVPKGARYLVTIGSFLWRHP | < -0.25 |
| GDLARARAFNQVEEFRYHKR | < -0.25 |
| TSSFFIQRLGYPLPGAVAWA | < -0.25 |
| LCFHNTSIYVAR | -0.245 |
| CAPRYLVVQELPASLEAKLQ | < -0.25 |
| CNERSGNCNAGFL | < -0.25 |
| SDITYQNH | < -0.25 |
| CWFLQFSVNCRRSVDASHTT | < -0.25 |
| SSERIA | < -0.25 |
| PCAHGTFSPLLLKKSRSGCY | < -0.25 |
| LEIRQLRIYGTGTQGGIPKC | < -0.25 |
| VPRRGRYRPRIVTGPSADVF | < -0.25 |
| ILSCGGRVHQMARSALPFAW | < -0.25 |
| PVVCFTRLMYAPVNRGKLVH | < -0.25 |

| Substance | growth estimate |
| --- | --- |
| WYGKPTNLVGR | < -0.25 |
| AQILNEENERCVGSVSSRLW | < -0.25 |
| GGRPSHAAPPSPGRVTKDPG | < -0.25 |
| LCSV | < -0.25 |
| MAQGDTDTYKGVPKGK | < -0.25 |
| MSARDAVTWDRQAGGPVYAT | < -0.25 |
| EVESGDRWSGLCLSDLLPSV | 0.226 |
| RRSIRDTC | < -0.25 |
| FWWHQYRVLIMAWEYKI | < -0.25 |
| LLFIAQYRMA | < -0.25 |
| RMMNV | < -0.25 |
| LIDVDATRTRRAIHGTAVPA | < -0.25 |
| SSLIEFGRG | < -0.25 |
| NAVACDHTHLVHVVHWALFG | < -0.25 |
| YRWVVGYNVSGWDLGTLMNV | < -0.25 |
| DLTGGRRQSANRDYRN | < -0.25 |
| GYCLFLRDFPNVRKHCSPHA | < -0.25 |
| VLRAVE | < -0.25 |
| TSTKIEPPPGTDATKA | < -0.25 |
| RLCDAAGIADEIVHESSRKR | < -0.25 |
| GFIGTIQRPPLETHPK | < -0.25 |
| YRCAQKIVP | < -0.25 |
| NGNSSVPVFPPLGDLV | < -0.25 |

Look-ups from the entries so far.
In growth estimate, GVPKGARYLVTIGSFLWRHP shows < -0.25
In growth estimate, CQTSAVRLPSPNHCRLMHVV shows < -0.25

Additional results follow:

| Substance | growth estimate |
| --- | --- |
| LYTKEVVHNYVRYLVLGSLP | < -0.25 |
| QGEGSADMVQFGLCGVTRDE | < -0.25 |
| PLLPVLDFRVYCAIVPYD | < -0.25 |
| CVLRTW | < -0.25 |
| RGVNRFQSPDKSVNIGTY | < -0.25 |
| SLRRKDCGCYSGRSPWP | < -0.25 |
| STDLGSKIKHASD | < -0.25 |
| NPQVCNKCSRLSMRNAVKTD | < -0.25 |
| RRTIGLGTKVGAGRSWI | < -0.25 |
| LIRGQIGFRSR | < -0.25 |
| YGSYVRPIPSRGSSMKCMPT | < -0.25 |
| LVVPGRLLRSLGRSDHERTR | < -0.25 |
| LAPPWDHRLPWR | -0.149 |
| FLSVIFNKRTRNLFPIMDSI | -0.245 |
| TSNGPDIRYPAAVGAHSTHI | < -0.25 |
| SLGWGGLVASWRGHGRRISV | < -0.25 |
| SGTQPEGDGHWRSTPELCLR | < -0.25 |
| RERSIRIDGGQFKNSVGPAS | < -0.25 |
| SRGIRDVTPESGIGVELLPK | < -0.25 |
| DFAHQD | < -0.25 |
| VPYKGRPREGCPFAMPSCRS | < -0.25 |
| LAPYIADFCSG | < -0.25 |
| ASGRWISSGQ | < -0.25 |

| Substance | growth estimate |
| --- | --- |
| PDCGVRRLRRYANENRD | < -0.25 |
| RIFVRERSRA | < -0.25 |
| GMMVQPQQ | < -0.25 |
| TVGYM | < -0.25 |
| DRSHQFSWKERAGRVP | < -0.25 |
| VKFRTLEATLVLHFDHQWSA | < -0.25 |
| KHVSAIRRGMVMAYVRRDLV | < -0.25 |
| MRGRVSLAAGSNSAWEIDFT | < -0.25 |
| GLGSGTRSARKVGRLSYEFV | < -0.25 |
| FIL | < -0.25 |
| VNGVETKDGSAGILSFKYPP | < -0.253 |
| QKRESASSE | -0.232 |
| ERPERYSRVPGPEPIEYKGT | < -0.25 |
| RGARTQRLPRMHRRLVEMLR | < -0.25 |
| TNVVGFRAGSSCCT | < -0.25 |
| TNLST | < -0.25 |
| RRFGFAAHQPEICVGR | < -0.25 |
| TELGAADVAV | < -0.25 |
| YHKSNPDRHPY | < -0.25 |
| TSLFLVEVAAAVAASNWRRL | < -0.25 |
| ATPGQEECEQ | < -0.25 |
| LKSNGGNTAVSID | < -0.25 |
| CLNDSNF | < -0.25 |

| Substance | growth estimate |
| --- | --- |
| AYVVLRYSTFALQ | < -0.25 |
| PYYRRHVRIAGLIRNVRRGQ | -0.137 |
| SLWGRISRSYGLPTTIAGIR | < -0.25 |
| IAGRPLGGMSEAWHLINKPI | -0.229 |
| GVIGVPRGRMVRSLPVTVQL | < -0.25 |
| AFVSQRAR | < -0.25 |
| KKEWT | < -0.25 |
| ASYILSAL | < -0.25 |
| WGPHVAGLQRSPRGAMVDCN | < -0.25 |
| DPRAAVLFSHWARKGRIS | < -0.25 |
| ISCVSQSNA | < -0.25 |
| VTMDLQSFTGVSRFVGVSVP | < -0.25 |
| LIYFEGAHVKL | < -0.25 |
| LPVC | < -0.25 |
| EGRESVAHEVGWDVYCW | < -0.25 |
| LSHPSVS | < -0.25 |
| CTIRPSRA | < -0.25 |
| VVEGGSFEQS | < -0.25 |
| GLVARRCCRDRWALCHPSGT | < -0.25 |
| GASRDLSFDLHGMTSPRAPS | < -0.25 |
| WEKRS | -0.246 |
| TRGIGQFSGTRRRHTCS | < -0.25 |
| QSNLEACSRCSLIDTPGTCV | < -0.25 |

Reformatted: entries from further up.
Substance | growth estimate
CTIRPSRA | < -0.25
VVEGGSFEQS | < -0.25
GLVARRCCRDRWALCHPSGT | < -0.25
GASRDLSFDLHGMTSPRAPS | < -0.25
WEKRS | -0.246
TRGIGQFSGTRRRHTCS | < -0.25

3 entries picked at random from the list so far, as already listed:

| Substance | growth estimate |
| --- | --- |
| DQEGQVGSKV | < -0.25 |
| RCSDQRPFMSP | < -0.25 |
| CTIRPSRA | < -0.25 |

More records follow:

| Substance | growth estimate |
| --- | --- |
| GISPILLW | < -0.25 |
| TGRRATLLGSSRYSVLRVAH | < -0.25 |
| PNKLLIQRPEADRCGLLLGG | < -0.25 |
| SNTRAILSTVRDYLRQRSSF | < -0.25 |
| HRTY | < -0.25 |
| QYRWTFPTRLGNAQLTP | < -0.25 |
| IESLRDCVFHISTGVTRPSV | < -0.25 |
| GSAFCTRPRLR | < -0.25 |
| QSEACDINLNVTRSRQIRLS | < -0.25 |
| QWPIMCTTQIYGCTDTNKRN | < -0.25 |
| FIVLRPRADLDTAVYRRVWN | < -0.25 |
| FKREERVS | < -0.25 |
| ASEVGLCA | < -0.25 |
| TEGV | < -0.25 |
| NWLKYSALGYG | < -0.25 |
| CYLRACRS | < -0.25 |
| APALLGPNIPA | < -0.25 |
| NQRVECQI | < -0.25 |
| QSLQRVALGSKAHYYRGV | < -0.25 |
| TGPVRKNGDFVHGSFE | -0.25 |
